Laboratory results as given in PMC11543946.
Results are given in words; binding and its absence hold for the method and conditions named. In cells and extracts the contact can be indirect.

Protein sequences, listed by entry. Tags and fused reporters are not part of them.
UniProt Q13127: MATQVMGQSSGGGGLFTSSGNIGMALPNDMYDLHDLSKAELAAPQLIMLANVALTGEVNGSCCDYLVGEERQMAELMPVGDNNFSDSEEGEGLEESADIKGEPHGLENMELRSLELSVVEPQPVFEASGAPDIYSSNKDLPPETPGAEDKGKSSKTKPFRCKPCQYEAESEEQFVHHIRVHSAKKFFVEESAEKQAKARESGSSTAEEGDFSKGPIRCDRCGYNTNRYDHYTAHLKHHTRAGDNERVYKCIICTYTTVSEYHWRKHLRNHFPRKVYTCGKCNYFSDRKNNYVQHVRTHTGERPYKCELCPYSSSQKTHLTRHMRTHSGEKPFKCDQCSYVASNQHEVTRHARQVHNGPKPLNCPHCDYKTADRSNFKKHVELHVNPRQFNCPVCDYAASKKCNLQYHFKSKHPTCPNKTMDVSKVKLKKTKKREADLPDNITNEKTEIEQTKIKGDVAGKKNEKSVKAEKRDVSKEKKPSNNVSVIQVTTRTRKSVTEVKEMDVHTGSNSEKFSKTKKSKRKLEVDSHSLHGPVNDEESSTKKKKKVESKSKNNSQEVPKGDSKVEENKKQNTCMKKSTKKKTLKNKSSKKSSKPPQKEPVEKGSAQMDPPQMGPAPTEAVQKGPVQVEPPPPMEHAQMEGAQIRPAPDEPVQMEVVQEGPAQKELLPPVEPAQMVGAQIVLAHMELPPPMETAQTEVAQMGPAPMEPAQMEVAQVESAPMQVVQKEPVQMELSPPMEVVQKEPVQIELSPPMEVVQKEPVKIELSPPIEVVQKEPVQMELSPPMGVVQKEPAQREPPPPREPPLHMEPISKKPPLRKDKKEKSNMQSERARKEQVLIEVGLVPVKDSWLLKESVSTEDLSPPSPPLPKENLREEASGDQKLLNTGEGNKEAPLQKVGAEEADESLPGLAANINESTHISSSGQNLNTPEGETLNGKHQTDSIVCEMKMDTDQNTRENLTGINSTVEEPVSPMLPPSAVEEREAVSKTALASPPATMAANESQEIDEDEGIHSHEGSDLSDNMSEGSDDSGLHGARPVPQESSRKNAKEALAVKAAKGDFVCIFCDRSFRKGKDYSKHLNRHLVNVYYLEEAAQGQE
UniProt Q8N6T7: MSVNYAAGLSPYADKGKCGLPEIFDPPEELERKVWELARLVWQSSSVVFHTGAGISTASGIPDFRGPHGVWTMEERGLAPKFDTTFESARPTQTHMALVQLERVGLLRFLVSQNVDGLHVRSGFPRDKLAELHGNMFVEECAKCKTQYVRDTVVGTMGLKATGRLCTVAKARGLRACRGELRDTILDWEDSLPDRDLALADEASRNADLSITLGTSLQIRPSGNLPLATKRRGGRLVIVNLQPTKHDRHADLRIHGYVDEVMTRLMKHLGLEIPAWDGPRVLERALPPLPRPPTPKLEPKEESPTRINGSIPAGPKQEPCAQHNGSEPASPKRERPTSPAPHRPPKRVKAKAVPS

Target: Flag-REST (RE-1 silencing transcription factor), expressed in SHSY-5Y cells (UniProt Q13127)
Experiment: co-IP; told only in the discussion, no data shown; cells and constructs not stated

## SIRT6 (from UniProt Q8N6T7 1-355) (enzyme)
  binding: no binding
